Test results from paper PMC11021519, “Niche Tet maintains germline stem cells independently of dioxygenase activity” (The EMBO Journal, 2024).

By UniProt entry, the sequences of proteins in these tests, tags left out. Where a name states a change or a piece, a line headed by the entry shows the natural chain unless it says otherwise. Chains listed by the source or under a name are the forms on record and can include a tag or linker.
Flag-Tet (M9NEY8, form named): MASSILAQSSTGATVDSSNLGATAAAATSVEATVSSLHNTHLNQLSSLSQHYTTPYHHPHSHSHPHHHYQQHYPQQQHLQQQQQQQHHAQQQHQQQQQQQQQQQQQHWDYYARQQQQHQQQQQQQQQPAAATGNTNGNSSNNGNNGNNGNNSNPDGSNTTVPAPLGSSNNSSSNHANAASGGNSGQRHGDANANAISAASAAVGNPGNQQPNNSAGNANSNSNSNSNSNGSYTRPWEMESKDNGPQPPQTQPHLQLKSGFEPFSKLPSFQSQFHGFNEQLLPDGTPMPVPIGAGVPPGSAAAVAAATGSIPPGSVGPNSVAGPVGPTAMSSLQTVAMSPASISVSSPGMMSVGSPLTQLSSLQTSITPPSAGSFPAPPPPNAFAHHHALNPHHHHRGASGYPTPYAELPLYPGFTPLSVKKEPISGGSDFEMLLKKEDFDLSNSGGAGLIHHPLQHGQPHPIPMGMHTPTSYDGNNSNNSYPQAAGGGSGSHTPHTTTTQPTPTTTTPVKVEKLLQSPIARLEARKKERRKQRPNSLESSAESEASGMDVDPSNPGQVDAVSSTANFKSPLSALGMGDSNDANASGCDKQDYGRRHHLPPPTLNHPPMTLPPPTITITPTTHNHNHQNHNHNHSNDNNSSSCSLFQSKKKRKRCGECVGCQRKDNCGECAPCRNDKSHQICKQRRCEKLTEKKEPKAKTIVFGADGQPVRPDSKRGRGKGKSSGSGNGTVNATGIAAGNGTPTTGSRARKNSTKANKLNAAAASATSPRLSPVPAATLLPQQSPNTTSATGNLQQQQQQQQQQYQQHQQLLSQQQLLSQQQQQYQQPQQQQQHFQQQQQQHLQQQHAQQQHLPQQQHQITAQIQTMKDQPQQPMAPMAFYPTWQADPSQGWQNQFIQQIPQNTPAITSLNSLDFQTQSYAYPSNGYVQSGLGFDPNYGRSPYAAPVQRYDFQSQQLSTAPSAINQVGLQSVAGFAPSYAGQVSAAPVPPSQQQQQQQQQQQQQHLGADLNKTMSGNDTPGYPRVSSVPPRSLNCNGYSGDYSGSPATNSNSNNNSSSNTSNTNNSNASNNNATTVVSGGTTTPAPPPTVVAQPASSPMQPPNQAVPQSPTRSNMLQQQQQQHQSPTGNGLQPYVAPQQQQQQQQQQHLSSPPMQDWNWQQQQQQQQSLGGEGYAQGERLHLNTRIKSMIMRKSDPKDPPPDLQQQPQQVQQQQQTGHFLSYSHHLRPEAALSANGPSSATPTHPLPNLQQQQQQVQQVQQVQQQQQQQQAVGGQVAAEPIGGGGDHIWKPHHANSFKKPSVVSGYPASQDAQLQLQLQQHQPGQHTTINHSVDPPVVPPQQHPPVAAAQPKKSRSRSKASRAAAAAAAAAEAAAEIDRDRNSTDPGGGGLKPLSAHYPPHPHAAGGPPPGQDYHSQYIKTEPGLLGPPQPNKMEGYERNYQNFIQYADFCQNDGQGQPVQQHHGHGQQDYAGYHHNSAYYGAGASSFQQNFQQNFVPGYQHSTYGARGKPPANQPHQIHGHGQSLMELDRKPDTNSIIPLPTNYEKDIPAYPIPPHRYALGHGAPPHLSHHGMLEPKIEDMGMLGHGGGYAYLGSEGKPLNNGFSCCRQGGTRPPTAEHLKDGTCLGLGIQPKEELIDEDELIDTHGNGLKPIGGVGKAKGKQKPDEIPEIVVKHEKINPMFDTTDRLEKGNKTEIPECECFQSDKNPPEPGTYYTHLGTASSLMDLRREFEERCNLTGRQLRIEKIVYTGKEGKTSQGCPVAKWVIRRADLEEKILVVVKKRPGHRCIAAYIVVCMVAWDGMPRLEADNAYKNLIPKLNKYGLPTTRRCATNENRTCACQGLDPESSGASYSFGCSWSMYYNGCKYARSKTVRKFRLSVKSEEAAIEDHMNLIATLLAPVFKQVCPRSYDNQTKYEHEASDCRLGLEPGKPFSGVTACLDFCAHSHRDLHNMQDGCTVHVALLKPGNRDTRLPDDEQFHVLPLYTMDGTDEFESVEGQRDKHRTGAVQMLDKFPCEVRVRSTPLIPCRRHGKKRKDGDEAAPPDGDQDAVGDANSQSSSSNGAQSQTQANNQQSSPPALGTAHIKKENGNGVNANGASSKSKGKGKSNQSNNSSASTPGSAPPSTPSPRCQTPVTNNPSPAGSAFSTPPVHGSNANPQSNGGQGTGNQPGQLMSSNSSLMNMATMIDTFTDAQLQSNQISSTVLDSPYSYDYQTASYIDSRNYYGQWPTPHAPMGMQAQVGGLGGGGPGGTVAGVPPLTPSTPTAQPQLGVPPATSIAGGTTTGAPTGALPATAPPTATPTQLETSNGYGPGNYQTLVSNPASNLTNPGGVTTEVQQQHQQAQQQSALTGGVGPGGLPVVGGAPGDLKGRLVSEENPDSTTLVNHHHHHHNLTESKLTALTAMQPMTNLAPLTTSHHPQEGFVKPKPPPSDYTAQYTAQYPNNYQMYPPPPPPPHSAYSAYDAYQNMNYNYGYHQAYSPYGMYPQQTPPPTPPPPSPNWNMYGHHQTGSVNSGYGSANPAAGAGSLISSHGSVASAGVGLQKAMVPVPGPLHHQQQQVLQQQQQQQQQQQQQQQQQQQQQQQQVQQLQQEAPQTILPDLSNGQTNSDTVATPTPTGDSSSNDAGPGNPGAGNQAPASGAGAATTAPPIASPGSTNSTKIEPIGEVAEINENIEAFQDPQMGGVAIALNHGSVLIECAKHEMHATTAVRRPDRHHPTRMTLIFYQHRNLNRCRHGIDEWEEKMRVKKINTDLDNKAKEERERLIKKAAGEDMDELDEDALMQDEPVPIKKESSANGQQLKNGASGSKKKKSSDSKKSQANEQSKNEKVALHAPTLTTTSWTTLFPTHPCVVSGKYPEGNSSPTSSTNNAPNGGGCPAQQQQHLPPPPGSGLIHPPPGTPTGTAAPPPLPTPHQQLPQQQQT

Target: Flag-Tet (Drosophila) (UniProt M9NEY8)
Test: affinity purification with mass spectrometry; Flag-Tet expressed in S2 cells; anti-Flag IP overnight at 4 °C; washes with IP buffer (50 mM Tris-HCl pH 7.5, 150 mM NaCl, 0.5% Triton X-100, 1 mM EDTA) and buffers A-D including 0.5 M NaCl; glycine elution; LC-MS

B1: Strep-Bap55 (natural protein, Drosophila, UniProt Q7K012 1-425, looked up)
chain: MSGGTMLYGGDEIGALVFDPGHHSLRVGYAQEDSPKAEIPSVVGIGAAPETNLDPETKTDNNATPNNADQRKFYVDTNYVTVPRSNMEVQTYMKDGMIDNWDLFEKVIDYAYANVIQSEPEYHPVLFSEASWNVRNNREKLTELMFEKYNVPAFFLVKNAVLAAFSSGRATALVVDSGATHTSAVPVHEGYVLSQAVVKSPLGGDFLSRQCRQHLEKHGIDLSPVYKIASKDVVKERDNGRFTLRKLPENLTQSWQNYMLQLMMQDFQMNVLQVLENPFDERVAAQIPTVHYEFPNGYHQDFGSERFKIAESLFDNAMLGAGQLASTSVGMCDADVRLSLFGSVVVTGGNTLLQGFPERLNRDLQLRAPSNTRLKMISANGSVERRFGAWIGGSILASIGTFQQMWISSQEYEEAGKSQVERKCP
notes: Drosophila Bap55, full-length Bap55-PA; pFastBac-HTB vectors usually also add an N-terminal His6 tag; source: insect cells (baculovirus), purified (Strep-Tactin XT, Superdex 200)
binding: binds

These are yes or no findings as the source states them, for the method shown. In cells and extracts the contact can be indirect. These calls come from enrichment with a bait or labelling near it, and not all partners need be listed.
